This note sets out measurements from publication PMC12730060, “Design, Synthesis, and Antimalarial Evaluation of New Spiroacridine Derivatives” (Antibiotics, 2025).

In series [1] the test system is P. falciparum Dd2 (chloroquine-resistant). The format is cell-based, Plasmodium falciparum. The settings on record: resistance index = IC50 (Dd2)/IC50 (3D7). As for the experimental part: (§1) Firstly, to prepare the samples for in vitro assays, each compound was dissolved in DMSO (Sigma-Aldrich®, Merck, Darmstadt, Germany), obtaining a solution of 5 mM, from which two other solutions, at 100 μM and 10 μΜ were prepared through dilution with RPMI-1640 medium (Invitrogen™, Carlsbad, CA, USA), supplemented with AlbuMAXII (Invitrogen™, Carlsbad, CA, USA). […] These cultures were obtained through BEI Resources, NIAID, NIH (MR4, ATCC®, Manassas, VA, USA), contributed by Andrew M. Talman, Robert E. Sinden, David Walliker, and Didier Ménard. The parasites were cultivated with 5% hematocrit at 37 °C and an atmosphere enriched with 5% of CO2 [54].
(§2) In order to accomplish this, unsynchronized cultures of 3D7-GFP, Dd2, and MRA-1240 were incubated at 1.2% hematocrit and 1.0% parasitemia with serial three-fold dilutions of the compounds, ranging from 10,000 nM to 0.17 nM, in 96-well flat-bottom plates for 72 h at 37 °C and 5% CO2. Parasite growth was quantified by flow cytometry (CytoFLEX, Beckman Coulter Life Sciences, Indianapolis, IN, USA) using GFP detection in a 96-well plate reader (Fl-1 channel) for the 3D7-GFP strain. The others (Dd2 and MRA-1240) were stained with SYBR Green I (20×), which is also detected at 488 nm. Data analysis was performed with FlowJo v10 software (FlowJo LLC, Ashland, OR, USA), and the half-maximal inhibitory concentrations (IC50) were calculated using GraphPad Prism 5 (trial version), with mean IC50 values obtained from at least two independent experiments, each conducted in triplicate.
(§3) All statistical analyses and graphical representations were performed using the GraphPad Prism 8.0 software package. Dose–response curves were generated by fitting the data to a nonlinear regression model [log(inhibitor) vs. response—variable slope]. […] The IC50 values were obtained from the fitted curves. Each experiment was carried out in triplicate and repeated independently, and results were expressed as mean ± standard deviation.

Series [2] relates to P. falciparum MRA-1240 (artemisinin-resistant). In kind it is cell-based, Plasmodium falciparum. The settings on record: resistance index = IC50 (MRA-1240)/IC50 (3D7). As for the experimental part: as §1, §2, §3
The test system of series [3] is monkey kidney cells (Vero E6). The experiment in a line: Cytotoxicity, MTT assay. In kind it is cell-based. The settings on record: for SI 3D7-GFP: selectivity index = IC50 (Vero E6)/IC50 (3D7-GFP); for SI Dd2: selectivity index = IC50 (Vero E6)/IC50 (Dd2); for SI MRA-1240: selectivity index = IC50 (Vero E6)/IC50 (MRA-1240). As for the experimental part:
In the following stages, to assess the selectivity of compounds against P. falciparum over mammalian cells, the cytotoxicity against monkey kidney cells (Vero E6) was determined through MTT assay after 72h of treatment. Also, the selectivity index (SI) of compounds was calculated by the ratio between a compound’s cytotoxicity against Vero E6 cells and its antiplasmodial activity (SI = Vero E6 IC50/P. falciparum IC50).
For this, monkey kidney cells (Vero E6) were seeded at a density of 5 × 10^3 cells/mL in 96-well plates and allowed to adhere for 6 h. Vero E6 cell line was obtained from the Cell Bank of Rio de Janeiro and cultured in DMEM media (Dulbecco’s Modified Eagle Medium) plus 10% inactivated fetal bovine serum (FBS) and 1% penicillin–streptomycin. Treatments were performed by adding 100 μL of medium solutions with test drugs, resulting in concentrations ranging from 12.5 to 100 µM (DMSO 1%, v/v). After 72 h of incubation at 37 °C and under 5% of CO2, the cultures were incubated with MTT at 0.5 mg/mL for 2 h. After this, the formazan crystals were dried in room temperature and dissolved in DMSO. Cell viability was determined by measuring the absorbance at 570 nm (Absorbance microplate reader EL800, BioTek, Winooski, VT, USA), and control wells containing DMSO at 1% were considered as 100% cell viability.

In the case of `N#CC1=CC2(c3ccccc3Nc3ccccc32)N(/N=C/c2c[nH]c3ccccc23)C1=O` [AMTAC-22, (E)-1′-(((1H-indol-3-yl)methylene)amino)-5′-oxo-1′,5′-dihydro-10H-spiro[acridine-9,2′-pyrrole]-4′-carbonitrile], the “RI Dd2” value in series [1] worked out at 0.8. Further, in series [2], the “RI MRA-1240” value is listed as 1.0. In series [3], the “SI 3D7-GFP” value was over 33.2, the “SI Dd2” value is over 42.7 and the “SI MRA-1240” value was over 34.7.

As for `COc1cc(/C=N/N2C(=O)C(C#N)=CC23c2ccccc2Nc2ccccc23)cc(OC)c1OC` [AMTAC-17], the “RI Dd2” value in series [1] is given as 1.0. The “RI MRA-1240” value in series [2] is 1.2. For the same compound, in series [3], the “SI 3D7-GFP” value was over 30.5, the “SI Dd2” value was over 30.4 and the “SI MRA-1240” value was over 24.5.

Turning to `N#CC1=CC2(c3ccccc3Nc3ccccc32)N(/N=C/c2ccnc3ccccc23)C1=O` [AMTAC-21, (E)-5′-oxo-1′-((quinolin-4-ylmethylene)amino)-1′,5′-dihydro-10H-spiro[acridine-9,2′-pyrrole]-4′-carbonitrile], the “RI Dd2” value in series [1] came to 1.0. Further, the “RI MRA-1240” value in series [2] is 1.1. Also, in series [3], the “SI 3D7-GFP” value was over 26.4, the “SI Dd2” value was over 25.1 and the “SI MRA-1240” value was over 24.6.

Turning to `COc1ccc(/C=N/N2C(=O)C(C#N)=CC23c2ccccc2Nc2ccccc23)cc1` [AMTAC-02], in series [1], the “RI Dd2” value is recorded as 1.0. Further, the “RI MRA-1240” value in series [2] turned out to be 1.3. Also, in series [3], the “SI 3D7-GFP” value is over 31.3, the “SI Dd2” value is reported as over 32.0 and the “SI MRA-1240” value is recorded as over 24.9.

For the compound `N#CC1=CC2(c3ccccc3Nc3ccccc32)N(/N=C/c2ccccc2)C1=O` [AMTAC-01], the “RI Dd2” value in series [1] is reported as 0.6. Moreover, the “RI MRA-1240” value in series [2] was determined as 0.8. Besides, in series [3], the “SI 3D7-GFP” value was over 47.3, the “SI Dd2” value is over 72.7 and the “SI MRA-1240” value is on record as over 60.2.
